# Reference: PubChem BioAssay AID540256 (National Center for Advancing Translational Sciences (NCATS), 2011)
# Hit rate of the full screen: of about 300,000 compounds, about 3,700 (1.2%) were called active. The shares of active, inactive and inconclusive entries below differ from those in the screen. Calls follow the shape of the full dose curve; tested in HEK293 cells. Where the call is inconclusive, the potency comes from a doubtful curve fit.
# Test: qHTS for Inhibitors of binding or entry into cells for Lassa Virus; also: nearly all actives have a fitted effect of over 50% in size
# Conditions: Lassa virus pseudotype entry inhibition, cell reporter; activity change, negative = inhibition: at 37.9 µM (top of the series) unless noted
# % is scaled to controls: 0 for no effect and ±100 for the full control effect; potency is read from the fitted curve at half-maximal effect.
SMILES,Potency,"activity change, negative = inhibition"
COc1ccc(CN2C(=O)/C(=C/c3ccncc3)SC2=S)cc1,"inconclusive: 29.1 µM [inhibitor, single point]",–
O=C(O)c1cc(N/C(=N\S(=O)(=O)c2ccc(F)cc2)c2ccccc2)ccc1O,–,inactive: 4.67%
COc1cccc(CNS(=O)(=O)c2c(C(=O)N3CCC(C)CC3)c(C)n(C)c2C)c1,–,inactive: 15.2% [at 46.1 µM]
CCOc1ccc(-n2c(O)c(/C=N/NC(=O)C3COc4ccccc4O3)c3ccccc3c2=O)cc1 (configuration not stated),–,inactive: -21.6%
CC(C)CN(CC(C)C)CC(O)Cn1cc(/C=C/C(=O)c2ccccc2)c2ccccc21 (configuration not stated),"inconclusive: 31.6 µM [activator, single point]",–
O=C(Nc1ccc(N2CCCC2)cc1)c1ccc2ccccc2c1,–,inactive: 0.113%
Cc1ccccc1NC(=S)NCCc1ccccc1,"inconclusive: 29.1 µM [inhibitor, single point]",–
O=S(=O)(c1ccc2ccccc2c1)N(CC(O)CN1CCOCC1)c1ccccc1 (configuration not stated),"inconclusive: 2 µM [inhibitor, partial curve, poor fit]",–
COc1ccc(OCCSc2nc(N)cc(N)n2)cc1,"inconclusive: 3.55 µM [activator, partial curve, poor fit]",–
O=C(Nc1ccc(C(O)(C(F)(F)F)C(F)(F)F)cc1)c1ccc(Cl)c([N+](=O)[O-])c1,"inconclusive: 29.1 µM [inhibitor, single point]",–
O=C(Cn1nnc(-c2ccc([N+](=O)[O-])cc2)n1)NNC(=O)c1ccccc1,"inconclusive: 11.2 µM [inhibitor, partial curve, poor fit]",–
O=C(OCC#CCSc1nnc(-c2ccc(Br)cc2)o1)c1cccs1,inactive,–
CCOC(=O)CCc1c(C)nc2cc(-c3ccc(Cl)cc3)[nH]n2c1=O,–,inactive: 18.1%
COc1ccccc1CNC(=O)COCc1cc(-c2ccc3c(c2)OCO3)on1,–,inactive: 7.27% [at 46.1 µM]
O=C(Nc1ccc2c(c1)OCO2)c1ccc(Br)c(S(=O)(=O)N2CCCC2)c1,"inconclusive: 10 µM [inhibitor, partial curve]",–
Cc1ccc(-c2cc(C(F)(F)F)n3ncc(-c4ccccc4)c3n2)cc1,–,inactive: 3% [at 46.1 µM]
CCOc1ccc(C(=O)c2oc3ccccc3c2NC(=O)c2cc(-c3ccc(C)cc3)on2)cc1,–,inactive: 16% [at 46.1 µM]
Cc1c(C=C2C(=O)NC(=O)NC2=O)c(=O)n(-c2ccccc2)n1C,"inconclusive: 35.5 µM [inhibitor, single point]",–
COc1cc(/C=N/N=C(/N)c2nonc2N)cc(Br)c1OCc1ccccc1C,"inconclusive: 29.1 µM [inhibitor, single point]",–
CC1CC(N(C(=O)c2ccc(Cl)cc2)c2ccccc2)c2ccccc2N1C(=O)c1ccco1 (configuration not stated),active: 20 µM,–
CC(=O)NC1=NN(C(C)=O)C(C)(c2ccc(Cl)s2)S1 (configuration not stated),"inconclusive: 10.3 µM [inhibitor, partial curve]",–
COc1ccc(C)cc1S(=O)(=O)NC1CC1,"inconclusive: 0.794 µM [inhibitor, single point]",–
CCOc1ccccc1NC(=O)C1CCCN1S(=O)(=O)c1ccc2nc(-c3ccccc3)[nH]c2c1 (configuration not stated),"inconclusive: 10 µM [inhibitor, partial curve, poor fit]",–

SMILES,Potency,"activity change, negative = inhibition"
COc1ccc(CCNC(=O)Cn2cc(S(=O)(=O)Cc3ccc(F)cc3)c3ccccc32)cc1OC,–,inactive: -8.11% [at 46.1 µM]
Cc1ccc(C(=O)Nc2nnc(-c3ccncc3)o2)cc1,"inconclusive: 22.4 µM [inhibitor, single point]",–
CCN(CC)S(=O)(=O)c1cc(C(=O)Nc2ccccn2)ccc1C,"inconclusive: 16.4 µM [inhibitor, single point]",–
CN(C)C(=S)N=c1ssc(=S)n1Cc1ccccc1,"inconclusive: 1.12 µM [inhibitor, partial curve, poor fit]",–
COc1ccc(-c2csc(NC(=O)COC(=O)c3ccco3)n2)cc1,"inconclusive: 14.1 µM [inhibitor, single point]",–
C/C(=N\NC(=S)NCCc1ccccc1)c1cccc(Br)c1,–,inactive: -18.6%
CCCCNc1nnc(SCC(=O)c2c[nH]c3ccccc23)s1,"inconclusive: 16.4 µM [activator, partial curve, poor fit]",–
CCOc1cc(C)c(C(C)C)cc1S(=O)(=O)n1cnc(C)c1,"inconclusive: 15.8 µM [inhibitor, single point]",–
Cc1cc2c(cc1C)-c1nnnn1C(C)(C)C2,–,inactive: 2.12%
O=C(CSc1ncccc1C(=O)Oc1ccccc1Cl)Nc1ccccc1Cl,"inconclusive: 28.2 µM [activator, partial curve, poor fit]",–
CCN1CCN(c2ncnc3c2cnn3-c2cccc(C)c2)CC1,"inconclusive: 35.5 µM [inhibitor, single point]",–
CN(C)CCC=C1c2ccccc2C=Cc2ccccc21,active: 8.2 µM,–
CC(C)Nc1nc(NC(C)C)nc(N(C#N)CCOc2ccc(Cl)cc2Cl)n1,"inconclusive: 29.1 µM [inhibitor, single point]",–
CCOC(=O)C1CCN(c2c(NCCCN(CC)Cc3ccccc3)c(=O)c2=O)CC1,–,inactive: 17.1%
CCOc1ccc(S(=O)(=O)Nc2cccc(-c3ccc(N4CCC(C)CC4)nn3)c2)cc1,–,inactive: -3.8% [at 46.1 µM]
CCCc1nnc(SCC(=O)N2CCOCC2)n1CC1CCCO1 (configuration not stated),"inconclusive: 2.82 µM [activator, partial curve]",–
Cc1ccccc1Nc1nc(N)nc(CN(C)Cc2ccccc2Cl)n1,"inconclusive: 29.1 µM [inhibitor, single point]",–
CCCc1nn2c(=O)cc(COC(=O)c3ccc(NC(=O)COc4ccccc4)cc3)nc2s1,–,inactive: 19.2% [at 46.1 µM]
CCOc1ccc(NC(=O)c2cccs2)c([N+](=O)[O-])c1,"inconclusive: 11.2 µM [inhibitor, single point]",–
CN(c1ccc(C(=O)NC2CCCCC2)cc1)S(=O)(=O)c1ccccc1,"inconclusive: 3.55 µM [inhibitor, full curve]",–
C[C@@H](C(=O)Nc1ccc2ccccc2c1)[C@H]1C[C@]1(C)[C@H](NC(=O)c1cccnc1)c1ccccc1,"inconclusive: 18.4 µM [inhibitor, single point]",–
CCC1CCCCN1c1nc2c(C=O)c(C)nn2c2ccccc12 (configuration not stated),"inconclusive: 35.5 µM [inhibitor, single point]",–
Cc1nc(NC(=O)C2CC2)sc1C(=O)Nc1ccccc1,–,inactive: -11%

# Single entries from the entries so far.
# Potency with `CC(C)Nc1nc(NC(C)C)nc(N(C#N)CCOc2ccc(Cl)cc2Cl)n1` is entered as inconclusive: 29.1 µM [inhibitor, single point]
# activity change, negative = inhibition with `Cc1nc(NC(=O)C2CC2)sc1C(=O)Nc1ccccc1` is entered as inactive: -11%
# Potency with `CCN(CC)S(=O)(=O)c1cc(C(=O)Nc2ccccn2)ccc1C` is entered as inconclusive: 16.4 µM [inhibitor, single point]
# activity change, negative = inhibition with `CCOC(=O)C1CCN(c2c(NCCCN(CC)Cc3ccccc3)c(=O)c2=O)CC1` is entered as inactive: 17.1%

# Carrying on:

SMILES,Potency,"activity change, negative = inhibition"
O=C(NCCc1ccccc1)C(=O)NCC1CCCN1S(=O)(=O)c1ccccc1 (configuration not stated),"inconclusive: 35.5 µM [inhibitor, single point]",–
O=C(N/N=C\c1ccc(-c2ccc([N+](=O)[O-])cc2)o1)C1COc2ccccc2O1 (configuration not stated),"inconclusive: 11.2 µM [inhibitor, single point]",–
COc1ccc(Cl)cc1NC(=O)CSc1nnc(Cc2ccc(C)cc2)c(=O)[nH]1,–,inactive: -7.1% [at 46.1 µM]
COc1ccc(Cl)cc1C(Nc1cccnc1)c1ccc2cccnc2c1O (configuration not stated),"inconclusive: 35.5 µM [inhibitor, single point]",–
CS(=O)(=O)Nc1cccc(C(=O)CC2(O)C(=O)Nc3ccc(Br)cc32)c1 (configuration not stated),"inconclusive: 35.5 µM [inhibitor, single point]",–
Cn1c(CCC(=O)Nc2ccc(F)cc2)nc2cc(S(=O)(=O)N3CCOCC3)ccc21,–,inactive: 2.27%
O=C(NCc1ccco1)C(=O)c1cn(CC(=O)N2CCCCCC2)c2ccccc12,"inconclusive: 15.8 µM [activator, single point]",–
O=C(/C=C/c1c[nH]c2ccccc12)c1cccc2ccccc12,"inconclusive: 22.4 µM [inhibitor, partial curve, poor fit]",–
COc1c(O)ccc(/C=N/NC(=O)c2ccc3c(c2)OCCO3)c1[N+](=O)[O-],"inconclusive: 35.5 µM [inhibitor, single point]",–
Nc1ccccc1SCC(=O)Nc1nc(-c2ccccc2)cs1,"inconclusive: 0.355 µM [inhibitor, partial curve, poor fit]",–
O=C(c1cc(C(=O)NCc2ccccc2)c(=O)n(Cc2ccccc2)c1)c1cc(Br)ccc1O,"inconclusive: 10 µM [inhibitor, partial curve, poor fit]",–
O=S(=O)(Nc1ccc(Br)cn1)c1ccc2ccccc2c1,"inconclusive: 35.5 µM [inhibitor, single point]",–
CCC(=O)Nc1nc2ccccc2n1Cc1ccc(Cl)cc1,"inconclusive: 29.1 µM [inhibitor, single point]",–
Oc1ccccc1CNCc1ccccc1,"inconclusive: 10 µM [activator, single point]",–
Cc1ccc(C)c(Sc2ccc(NC(=O)CCl)cc2)c1,"inconclusive: 14.6 µM [inhibitor, partial curve]",–
COc1cc2c(c(OC)c1)C(=O)OC(C)CCCC(=O)CCCCC2 (configuration not stated),–,inactive: -21.4%
O=C1C(Nc2ccccc2)=C/C(=N/S(=O)(=O)c2cccs2)c2ccccc21,"inconclusive: 4.47 µM [inhibitor, full curve, poor fit]",–
COC(=O)C1(C)NC(c2ccco2)C2C(=O)N(c3ccc(F)cc3)C(=O)C21 (configuration not stated),"inconclusive: 6.31 µM [inhibitor, single point]",–
COc1ccc2c(c1)sc(N)[n+]2Cc1cc(C)cc2cccnc12,"inconclusive: 3.55 µM [inhibitor, full curve, poor fit]",–
CCOc1ccc(NC(=O)C2C3CC/C=C\CCC32)cc1 (configuration not stated),"inconclusive: 1.26 µM [inhibitor, single point]",–
Cc1ccc(C(=O)O/N=C\c2ccc(N3CCCCC3)c([N+](=O)[O-])c2)cc1,"inconclusive: 5.62 µM [activator, partial curve, poor fit]",–
